Structures can show the parent of a compound that is named as a salt. Some results were stated once for a whole list of compounds, not compound by compound.
Biological target: full-length human recombinant active AKT-1 (Homo sapiens, UniProt P31749)
Experiment: AKT-1 Kinase Assay (IMAP fluorescence polarization)
Assay type: biochemical
Settings: phosphorylation of fluorescently-labeled peptide (Crosstide), IMAP kit

By UniProt entry, the sequences of proteins in these tests, tags left out. Where a name states a change or a piece, a line headed by the entry shows the natural chain unless it says otherwise.
UniProt P31749: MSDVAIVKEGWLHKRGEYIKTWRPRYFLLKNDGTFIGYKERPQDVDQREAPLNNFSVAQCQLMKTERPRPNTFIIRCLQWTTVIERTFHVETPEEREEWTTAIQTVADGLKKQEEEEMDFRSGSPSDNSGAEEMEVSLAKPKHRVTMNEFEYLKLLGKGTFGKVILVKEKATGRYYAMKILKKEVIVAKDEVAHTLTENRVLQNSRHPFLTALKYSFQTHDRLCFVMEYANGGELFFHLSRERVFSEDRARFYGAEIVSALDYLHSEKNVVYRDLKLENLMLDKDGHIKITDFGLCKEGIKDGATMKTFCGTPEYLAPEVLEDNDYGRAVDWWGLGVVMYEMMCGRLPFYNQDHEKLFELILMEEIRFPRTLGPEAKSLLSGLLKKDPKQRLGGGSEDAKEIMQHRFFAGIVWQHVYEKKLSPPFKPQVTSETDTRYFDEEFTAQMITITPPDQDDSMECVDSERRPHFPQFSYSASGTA

SMILES | IC50
CC(C)N1CCN(C[C@@H](C(=O)N2CCN(c3ncnc4c3[C@H](C)C[C@H]4F)CC2)c2ccc(Cl)c(Cl)c2)CC1 [Example 142, (S)-2-(3,4-dichlorophenyl)-1-(4-((5R,7R)-7-fluoro-5-methyl-6,7-dihydro-5H-cyclopenta[d]pyrimidin-4-yl)piperazin-1-yl)-3-(4-isopropylpiperazin-1-yl)propan-1-one] | < 10 µM
CC1CN1CC(C(=O)N1CCN(c2ncnc3c2[C@H](C)CC3)CC1)c1ccc(Cl)cc1 (stereo partly drawn) [Example 44, 2-(4-chlorophenyl)-1-(4-((R)-5-methyl-6,7-dihydro-5H-cyclopenta[d]pyrimidin-4-yl)piperazin-1-yl)-3-(2-methylaziridin-1-yl)propan-1-one] | < 10 µM
CC(C)N1CCN(C[C@H](C(=O)N2CCN(c3ncnc4c3[C@H](C)C[C@H]4F)CC2)c2ccc(Cl)c(Cl)c2)CC1 [Example 141, (R)-2-(3,4-dichlorophenyl)-1-(4-((5R,7R)-7-fluoro-5-methyl-6,7-dihydro-5H-cyclopenta[d]pyrimidin-4-yl)piperazin-1-yl)-3-(4-isopropylpiperazin-1-yl)propan-1-one] | < 10 µM
CC[C@H]1CN(C(=O)[C@H](N)Cc2ccc(Cl)cc2)CCN1c1ncnc2c1[C@H](C)CC2 [Example 92, (R)-2-amino-3-(4-chlorophenyl)-1-((S)-3-ethyl-4-((R)-5-methyl-6,7-dihydro-5H-cyclopenta[d]pyrimidin-4-yl)piperazin-1-yl)propan-1-one] | < 10 µM
C[C@@H]1C[C@@H](F)c2ncnc(N3CCN(C(=O)[C@@H](CN4CCOCC4)c4ccc(Cl)cc4)CC3)c21 [Example 118, (R)-2-(4-chlorophenyl)-1-(4-((5R,7R)-7-fluoro-5-methyl-6,7-dihydro-5H-cyclopenta[d]pyrimidin-4-yl)piperazin-1-yl)-3-morpholinopropan-1-one] | < 10 µM
C[C@@H]1C[C@H](F)c2ncnc(N3CCN(C(=O)[C@H](CNC4CCOCC4)c4ccc(Cl)cc4)CC3)c21 [Example 95, (S)-2-(4-chlorophenyl)-1-(4-((5R,7S)-7-fluoro-5-methyl-6,7-dihydro-5H-cyclopenta[d]pyrimidin-4-yl)piperazin-1-yl)-3-(tetrahydro-2H-pyrazn-4-ylamino)propan-1-one] | < 10 µM
C[C@@H]1CCc2ncnc(N3CCN(C(=O)C(CN4CC[C@H](F)C4)c4ccc(Cl)cc4)CC3)c21 (stereo partly drawn) [Example 36, (R,S)-2-(4-chlorophenyl)-3-((S)-3-fluoropyrrolidin-1-yl)-1-(4-((R)-5-methyl-6,7-dihydro-5H-cyclopenta[d]pyrimidin-4-yl)piperazin-1-yl)propan-1-one dihydrochloride] | < 10 µM
C[C@@H]1CCc2ncnc(N3CCN(C(=O)C(CN4CC[C@@H](O)C4)c4ccc(Cl)cc4)CC3)c21 (stereo partly drawn) [Example 24, (R,S) 2-(4-chlorophenyl)-3-((R)-3-hydroxypyrrolidin-1-yl)-1-(4-((R)-5-methyl-6,7-dihydro-5H-cycloenta[d]pyrimidin-4-yl)piperazin-1-yl)propan-1-one dihydrochloride] | < 10 µM
CC(=O)N1CCN(C[C@H](C(=O)N2CCN(c3ncnc4c3[C@H](C)C[C@H]4F)CC2)c2ccc(Cl)cc2)CC1 [Example 106, (R)-3-(4-acetylpiperazin-1-yl)-2-(4-chlorophenyl)-1-(4-((5R,7R)-7-fluoro-5-methyl-6,7-dihydro-5H-cyclopenta[d]pyrimidin-4-yl)piperazin-1-yl)propan-1-one] | < 10 µM
C[C@@H]1C[C@@H](F)c2ncnc(N3CCN(C(=O)[C@H](CNCC4CC4)c4ccc(Br)c(F)c4)CC3)c21 [Example 147, (S)-2-(4-bromo-3-fluorophenyl)-3-(cyclopropylmethylamino)-1-(4-((5R,7R)-7-fluoro-5-methyl-6,7-dihydro-5H-cyclopenta[d]pyrimidin-4-yl)piperazin-1-yl)propan-1-one] | < 10 µM
C[C@@H]1CCc2ncnc(N3CCN(C(=O)[C@H](N)Cc4cccs4)CC3)c21 [Example 160, (R)-2-amino-1-(4-((R)-5-methyl-6,7-dihydro-5H-cyclopenta[d]pyrimidin-4-yl)piperazin-1-yl)-3-(thiophen-2-yl)propan-1-one] | < 10 µM
C[C@@H]1C[C@@H](F)c2ncnc(N3CCN(C(=O)[C@H](N)Cc4ccc(Cl)cc4)CC3)c21 [Example 73, (R)-2-amino-3-(4-chlorophenyl)-1-(4-((5R,7R)-7-fluoro-5-methyl-6,7-dihydro-5H-cyclopenta[d]pyrimidin-4-yl)piperazin-1-yl)propan-1-one] | < 10 µM
CC(C)NC[C@@H](C(=O)N1CCN(c2ncnc3c2[C@H](C)C[C@H]3F)CC1)c1ccc(Br)c(F)c1 [Example 148, (S)-2-(4-bromo-3-fluorophenyl)-1-(4-((5R,7R)-7-fluoro-5-methyl-6,7-dihydro-5H-cyclopenta[d]pyrimidin-4-yl)piperazin-1-yl)-3-(isopropylamino)propan-1-one] | < 10 µM
C[C@@H]1CCc2ncnc(N3CCN(C(=O)C(CC(C)(C)N)c4ccc(Cl)c(F)c4)CC3)c21 (stereo partly drawn) [Example 16, (R,S)-4-amino-2-(4-chloro-3-fluorophenyl)-4-methyl-1-(4-((R)-5-methyl-6,7-dihydro-5H-cyclopenta[d]pyrimidin-4-yl)piperazin-1-yl)pentan-1-one dihydrochloride] | < 10 µM
CC(C)NCC(C(=O)N1CCN(c2ncnc3c2[C@H](C)CC3)[C@H](C)C1)c1ccc(Cl)cc1 (stereo partly drawn) [Example 21, (R,S)-2-(4-chlorophenyl)-3-(isopropylamino)-1-((R)-3-methyl-4-((R)-5-methyl-6,7-dihydro-5H-cyclopenta[d]pyrimidin-4-yl)piperazin-1-yl)propan-1-one dihydrochloride] | < 10 µM
C[C@@H]1CCc2ncnc(N3CCN(C(=O)C(CNCC(F)(F)F)c4ccc(Cl)cc4)CC3)c21 (stereo partly drawn) [Example 39, 2-(4-chlorophenyl)-1-(4-((R)-5-methyl-6,7-dihydro-5H-cyclopenta[d]pyrimidin-4-yl)piperazin-1-yl)-3-(2,2,2-trifluoroethylamino)propan-1-one] | < 10 µM
C[C@@H]1C[C@H](F)c2ncnc(N3CCN(C(=O)[C@H](CN)c4ccc(Cl)c(Cl)c4)CC3)c21 [Example 122, (S)-3-amino-2-(3,4-dichlorophenyl)-1-(4-((5R,7S)-7-fluoro-5-methyl-6,7-dihydro-5H-cyclopenta[d]pyrimidin-4-yl)piperazin-1-yl)propan-1-one] | < 10 µM
C[C@@H]1C[C@@H](F)c2ncnc(N3CCN(C(=O)[C@H](CN)c4ccc(Cl)c(F)c4)CC3)c21 [Example 132, (S)-3-amino-2-(4-chloro-3-fluorophenyl)-1-(4-((5R,7R)-7-fluoro-5-methyl-6,7-dihydro-5H-cyclopenta[d]pyrimidin-4-yl)piperazin-1-yl)propan-1-one] | < 10 µM
C[C@@H]1C[C@@H](F)c2ncnc(N3CCN(C(=O)[C@H](CN4CCC(O)CC4)c4ccc(Cl)c(Cl)c4)CC3)c21 [Example 139, (S)-2-(3,4-dichlorophenyl)-1-(4-((5R,7R)-7-fluoro-5-methyl-6,7-dihydro-5H-cyclopenta[d]pyrimidin-4-yl)piperazin-1-yl)-3-(4-hydroxypiperidin-1-yl)propan-1-one] | < 10 µM
C[C@@H]1CCc2ncnc(N3CCN(C(=O)C4(c5ccc(Cl)cc5)CCNC4)CC3)c21 (stereo partly drawn) [Example 20, (R,S)-(3-(4-chlorophenyl)pyrrolidin-3-yl)(4-((R)-5-methyl-6,7-dihydro-5H-cyclopenta[d]pyrimidin-4-yl)piperazin-1-yl)methanone dihydrochloride] | < 10 µM
